Earlier results on one molecule are cited in paper PMC2997942 (Molecular pharmaceutics, 2010).

The structures appear in SMILES notation.

This data set addresses OCTN2. Conditions: Mouse enterocyte; cited from earlier work.

Take `CN(C)CCOC(c1ccccc1)c1ccccc1` [Diphenhydramine]: the “Ki or IC50” value is “Not inhibitor”.
